Assay results from the supplement of paper PMC6445147.
Single values of this data set are uncertain.

B1: human tRNA-Pro; a variant is named by its letters at N, in order (parent)
chain: GGCTCGTTGGTCTAGNGGTATGATTCTCGCTTAGGGTGCGAGAGGTCCCGGGTTCNNATCCCGGACGAGCCC

What was measured:
[1] = variants of: B1; assay: tRNA Pol-III promoter activity, log2 (circRNA frequency / plasmid DNA frequency) (log2 ratio); higher = stronger promoter activity; details: HEK293T; construct: no Pol-II promoter ((-)CMV library)
[2] = variants of: B1; assay: tRNA 3' processing efficiency (processed reads / all reads, maximum-likelihood estimate) (fraction); higher = more efficient 3' processing; details: HEK293T; construct: no Pol-II promoter ((-)CMV library)
[3] = variants of: B1; assay: tRNA 5' processing efficiency (processed reads / all reads, maximum-likelihood estimate) (fraction); higher = more efficient 5' processing; details: HEK293T; construct: CMV Pol-II promoter ((+)CMV library, decapped)

| Variant | tRNA Pol-III promoter activity (log2) [1] | tRNA 3' processing efficiency [2] | tRNA 5' processing efficiency [3] |
| --- | --- | --- | --- |
| GGCTCGTTGGTCTAGCGGTATGATTCTCGCTTAGGGTGCGAGAGGTCCCGGGTTTTAATCCCGGACGAGCCC [CTA C55T] | 4.19 | 0.39 |  |
| GGCTCGTTCGTCTAAGGGTATGATTCTCGCTTAGGGTGCGAGAGGTCCCGGGTTCTAAGCCCGGACGAGCCC [GTA G9C G15A T59G] | 3.53 | 0.33 |  |
| GGCTCGTTAGTCTAGGGGTATGATTCTCGCTTAGGGTGCGAGAGGTCCCGGGCTCTAATCCCGGACGAGCCC [GTA G9A T53C] | 2.93 | 0.62 |  |
| GGCTCGTTAGTCTAGGGGTATGATTCTCGCTTAGGGTGCGAGAGGTCCCGGGGTCTAATCCCGGACGAGCCC [GTA G9A T53G] | 1.55 | 0.25 |  |
| GGCTCGTTGGTCTAGTGGTATGATTCTCGCTTAGGGTGCGAGAGGTCCCGGGTTTTAATCCCGGACGAGCCC [TTA C55T] | 3.04 | 0.57 |  |
| GGCTCGTTTGTCTAGGGGTATGATTCTCGCTTAGGGTGCGAGAGGTCCCGGGTTCTACTCCCGGACGAGCCC [GTA G9T A58C] | 1.93 | 0.25 |  |
| GGCTCGTTGGTCTAGGGGTATGATTCTCGCTTAGGGTGCGAGAGGTCCCGGGTTTTAATCCCGGACGAGCCC [GTA C55T] | -0.839 | 0.41 |  |
| GGCTCGTTAGTCTAGGGGTTTGATTCTCGCTTAGGGTGCGAGAGGTCCCGGGTTCTAAACCCGGACGAGCCC [GTA G9A A20T T59A] | 5.64 | 0.62 |  |
| GGCTCGTTTGTCTCGGAGTCTGATTCTCGCTTAGGGTGCGAGAGGTCCCGGGTTCTAATCCCGGACGAGCCC [GTA G9T A14C G17A A20C] | 5.67 | 0.3 |  |
| GGCTCGTTGGTCTAATGGTATGATTCTCGCTTAGGGTGCGAGAGGTCCCGGGTTCTAATCCCGGACGAGCCC [TTA G15A] | 4.51 | 0.47 |  |
| GGCTCGTTAGTCTAGAGGTATGATTCTCGCTTAGGGTGCGAGAGGTCCCGGGTTCTAGTCCCGGACGAGCCC [ATA G9A A58G] | 5.75 | 0.43 |  |
| GGCTCGTTGGTCTAAGGGTATGATTCTCGCTTAGGGTGCGAGAGGTCCCGGGTTCTACTCCCGGACGAGCCC [GTA G15A A58C] | 3.94 | 0.25 |  |
| GGCTCGTTAGTCTCGTGGTATGATTCTCGCTTAGGGTGCGAGAGGTCCCGGGTTCTAATCCCGGACGAGCCC [TTA G9A A14C] | 2.93 | 0.25 |  |
| GGCTCGTTAGTCTAGGGGTATGATTCTCGCTTAGGGTGCGAGAGGTCCCGGGTTCTAGTCCCGGACGAGCCC [GTA G9A A58G] | 3.75 | 0.29 |  |
| GGCTCGTTAGTCTAGGGGTATGATTCTCGCTTAGGGTGCGAGAGGTCCCGGGTTCTATTCCCGGACGAGCCC [GTA G9A A58T] | 4.68 | 0.15 |  |
| GGCTCGTTAGTCTAGGGGTATGATTCTCGCTTAGGGTGCGAGAGGTCCCGGGTTCTACTCCCGGACGAGCCC [GTA G9A A58C] | 2.77 | 0.21 |  |
| GGCTCGTTGGTCTAAAGGTATGATTCTCGCTTAGGGTGCGAGAGGTCCCGGGTTCTAATCCCGGACGAGCCC [ATA G15A] | 2.72 | 0.17 |  |
| GGCTCGTTTGTCTAGCGGTATGATTCTCGCTTAGGGTGCGAGAGGTCCCGGGTTCTACTCCCGGACGAGCCC [CTA G9T A58C] | 4.26 | 0.4 |  |
| GGCTCGTTAGTCTACGGGTATGATTCTCGCTTAGGGTGCGAGAGGTCCCGGGTTCTAATCCCGGACGAGCCC [GTA G9A G15C] | 5.28 | 0.26 |  |

Exported tab-delimited: part of the list above.
Variant	tRNA Pol-III promoter activity (log2) [1]	tRNA 3' processing efficiency [2]	tRNA 5' processing efficiency [3]
GGCTCGTTGGTCTAAAGGTATGATTCTCGCTTAGGGTGCGAGAGGTCCCGGGTTCTAATCCCGGACGAGCCC [ATA G15A]	2.72	0.17	
GGCTCGTTTGTCTAGCGGTATGATTCTCGCTTAGGGTGCGAGAGGTCCCGGGTTCTACTCCCGGACGAGCCC [CTA G9T A58C]	4.26	0.4	

Next part.

| Variant | tRNA Pol-III promoter activity (log2) [1] | tRNA 3' processing efficiency [2] | tRNA 5' processing efficiency [3] |
| --- | --- | --- | --- |
| GGCTCGTTAGTCTAGGGGTATGATTCTCGCTTAGGGTGCGAGAGGTCCCGGGTTCTAATCCCGGACGAGCCC [GTA G9A] | 1.71 | 0.17 | 0.2 |
| GGCTCGTTAGTCTAGGGGTGTGATTCTCGCTTAGGGTGCGAGAGGTCCCGGGTTCTAATCCCGGACGAGCCC [GTA G9A A20G] | 1.19 | 0.25 |  |
| GGCTCGTTCGTCTAGCGGTATGATTCTCGCTTAGGGTGCGAGAGGTCCCGGGTTCTACTCCCGGACGAGCCC [CTA G9C A58C] | 4.93 | 0.5 |  |
| GGCTCGTTAGTCTAGGGGTATGATTCTCGCTTAGGGTGCGAGAGGTCCCGGGTTGTATTCCCGGACGAGCCC [GTA G9A C55G A58T] | 3.34 | 0.17 |  |
| GGCTCGTTCGTCTAGGGGTCTGATTCTCGCTTAGGGTGCGAGAGGTCCCGGGTTCTAATCCCGGACGAGCCC [GTA G9C A20C] | 5.36 | 0.8 |  |
| GGCTCGTTAGTCTGGGGGTATGATTCTCGCTTAGGGTGCGAGAGGTCCCGGGTTCTATTCCCGGACGAGCCC [GTA G9A A14G A58T] | 6.25 | 0.2 |  |
| GGCTCGTTAGTCTAGGGGAATGATTCTCGCTTAGGGTGCGAGAGGTCCCGGGTTCTAACCCCGGACGAGCCC [GTA G9A T19A T59C] | 5.03 | 0.5 |  |
| GGCTCGTTGGTCTAAGGGTATGATTCTCGCTTAGGGTGCGAGAGGTCCCGGGTTCTAATCCCGGACGAGCCC [GTA G15A] | 0.555 | 0.19 |  |
| GGCTCGTTGGTCTAACGGTATGATTCTCGCTTAGGGTGCGAGAGGTCCCGGGTTCTAATCCCGGACGAGCCC [CTA G15A] | 3.93 | 0.6 |  |
| GGCTCGTTAGTCTAGGGGTATGATTCTCGCTTAGGGTGCGAGAGGTCCCGGGTTCTAAGCCCGGACGAGCCC [GTA G9A T59G] | 2.12 | 0.25 |  |
| GGCTCGTTAGTCTAGTGGTATGATTCTCGCTTAGGGTGCGAGAGGTCCCGGGTTCTAATCCCGGACGAGCCC [TTA G9A] | 4.48 | 0.38 |  |
| GGCTCGTTTGTCTAGCGGTATGATTCTCGCTTAGGGTGCGAGAGGTCCCGGGTTCTAATCCCGGACGAGCCC [CTA G9T] | 3.51 | 0.67 |  |
| GGCTCGTTAGTCTAGCGGTATGATTCTCGCTTAGGGTGCGAGAGGTCCCGGGTTCTAATCCCGGACGAGCCC [CTA G9A] | 6.74 | 0.5 |  |
| GGCTCGTTGGTCTAAAGGTATGATTCTCGCTTAGGGTGCGAGAGGTCCCGGGTTCTACTCCCGGACGAGCCC [ATA G15A A58C] | 5.25 | 0.4 |  |
| GGCTCGTTAGTCTTGGGGTATGATTCTCGCTTAGGGTGCGAGAGGTCCCGGGTTCTAGTCCCGGACGAGCCC [GTA G9A A14T A58G] | 4.03 | 0.83 |  |
| GGCTCGTTTGTCTAGAGGTATGATTCTCGCTTAGGGTGCGAGAGGTCCCGGGTTCTAGTCCCGGACGAGCCC [ATA G9T A58G] | 6.36 | 0.2 |  |
| GGCTCGTTAGTCTAGAGGTATGATTCTCGCTTAGGGTGCGAGAGGTCCCGGGTTCTAATCCCGGACGAGCCC [ATA G9A] | 3.22 | 0.64 |  |
| GGCTCGTTTGTCTATGGGTATGATTCTCGCTTAGGGTGCGAGAGGTCCCGGGTTTTAACCCCGGACGAGCCC [GTA G9T G15T C55T T59C] | 3.38 | 0.71 |  |
